These are yes or no findings as the source states them, for the method shown. In cells and extracts the contact can be indirect. A yes stands for co-enrichment or nearness to the bait. Other partners may have been found. Tags and fused reporters may be left off the sequences shown.
target: T1, TAP-tagged Sld5 (S. pombe) (UniProt Q9P7C8); assay: affinity purification with mass spectrometry; TAP-tagged Sld5 precipitated on rabbit IgG Dynabeads from Benzonase-treated lysate of mrc1+, mrc1-W620STOP or mrc1-3A S. pombe cells; label-free mass spectrometry
T1 sequence: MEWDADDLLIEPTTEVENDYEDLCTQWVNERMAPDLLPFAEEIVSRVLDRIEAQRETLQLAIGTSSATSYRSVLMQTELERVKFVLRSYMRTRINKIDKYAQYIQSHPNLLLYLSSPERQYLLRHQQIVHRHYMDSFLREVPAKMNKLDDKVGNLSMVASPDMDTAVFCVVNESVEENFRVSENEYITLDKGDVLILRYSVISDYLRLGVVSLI

Amino acid sequences for entries named in this document (tags omitted). A change or cut given only in a name is not applied to a line headed by its entry. Chains listed by the source or under a name are the forms on record and can include a tag or linker.
UniProt Q9P7T4: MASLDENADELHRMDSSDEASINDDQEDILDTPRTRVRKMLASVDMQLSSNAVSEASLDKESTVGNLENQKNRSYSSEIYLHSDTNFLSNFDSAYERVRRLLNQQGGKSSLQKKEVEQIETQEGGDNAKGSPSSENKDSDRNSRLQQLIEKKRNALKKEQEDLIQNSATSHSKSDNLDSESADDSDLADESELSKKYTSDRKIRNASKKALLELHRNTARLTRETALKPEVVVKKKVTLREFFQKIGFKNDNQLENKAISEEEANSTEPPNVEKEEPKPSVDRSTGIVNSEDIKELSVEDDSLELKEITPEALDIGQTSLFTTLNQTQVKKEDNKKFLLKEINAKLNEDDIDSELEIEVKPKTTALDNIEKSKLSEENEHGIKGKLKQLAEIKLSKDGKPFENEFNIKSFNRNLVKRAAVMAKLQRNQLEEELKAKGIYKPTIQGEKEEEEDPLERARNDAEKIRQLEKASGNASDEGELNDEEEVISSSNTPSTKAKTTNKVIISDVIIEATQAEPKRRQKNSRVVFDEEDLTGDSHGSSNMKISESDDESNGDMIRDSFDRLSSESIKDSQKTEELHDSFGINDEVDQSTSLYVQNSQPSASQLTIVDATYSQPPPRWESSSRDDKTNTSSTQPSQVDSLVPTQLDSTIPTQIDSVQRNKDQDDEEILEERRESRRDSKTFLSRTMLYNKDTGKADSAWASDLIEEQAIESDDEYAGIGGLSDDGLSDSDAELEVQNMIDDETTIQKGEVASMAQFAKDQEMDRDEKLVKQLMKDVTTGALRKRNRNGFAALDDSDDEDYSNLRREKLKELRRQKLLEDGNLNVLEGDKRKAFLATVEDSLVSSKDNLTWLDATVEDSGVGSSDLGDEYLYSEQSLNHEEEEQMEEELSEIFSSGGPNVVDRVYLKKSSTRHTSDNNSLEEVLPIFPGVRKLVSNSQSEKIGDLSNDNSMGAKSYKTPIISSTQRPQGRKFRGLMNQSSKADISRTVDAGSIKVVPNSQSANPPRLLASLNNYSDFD
Mrc1-3A (Q9P7T4, form named): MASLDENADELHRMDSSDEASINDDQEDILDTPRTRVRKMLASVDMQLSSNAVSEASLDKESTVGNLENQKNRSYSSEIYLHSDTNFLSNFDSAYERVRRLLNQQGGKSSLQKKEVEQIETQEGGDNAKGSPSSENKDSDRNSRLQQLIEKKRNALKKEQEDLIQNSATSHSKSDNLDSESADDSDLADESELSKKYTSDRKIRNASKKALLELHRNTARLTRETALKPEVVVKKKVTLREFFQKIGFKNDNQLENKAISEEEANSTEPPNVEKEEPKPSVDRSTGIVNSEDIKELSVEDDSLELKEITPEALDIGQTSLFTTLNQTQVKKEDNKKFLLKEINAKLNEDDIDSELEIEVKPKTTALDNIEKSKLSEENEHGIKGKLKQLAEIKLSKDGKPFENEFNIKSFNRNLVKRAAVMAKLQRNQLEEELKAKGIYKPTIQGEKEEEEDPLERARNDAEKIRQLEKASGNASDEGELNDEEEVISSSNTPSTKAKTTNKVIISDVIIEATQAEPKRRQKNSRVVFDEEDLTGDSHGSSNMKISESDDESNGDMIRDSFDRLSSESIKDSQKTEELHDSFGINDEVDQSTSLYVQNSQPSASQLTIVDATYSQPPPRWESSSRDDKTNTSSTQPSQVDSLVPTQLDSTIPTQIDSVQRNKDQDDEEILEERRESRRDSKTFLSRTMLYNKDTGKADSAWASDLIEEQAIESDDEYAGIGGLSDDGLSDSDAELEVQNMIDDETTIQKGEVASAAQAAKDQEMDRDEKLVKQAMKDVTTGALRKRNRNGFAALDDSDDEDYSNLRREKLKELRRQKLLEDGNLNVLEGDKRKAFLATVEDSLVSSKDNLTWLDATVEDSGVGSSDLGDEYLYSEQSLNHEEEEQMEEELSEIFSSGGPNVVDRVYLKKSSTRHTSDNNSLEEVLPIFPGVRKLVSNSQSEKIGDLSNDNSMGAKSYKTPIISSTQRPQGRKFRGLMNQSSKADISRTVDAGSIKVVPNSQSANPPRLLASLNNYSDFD

binding	Substance
binds	Mrc1-3A (from UniProt Q9P7T4 1-1019)
binds	truncated Mrc1-(1–620) (mrc1-W620STOP cells) (from UniProt Q9P7T4 1-620) (domain or fragment)
binds	Mrc1 (from UniProt Q9P7T4 1-1019)
